No constants are given. Whether binding was seen depends on the method and setting. Binding seen in cells or lysates may run through a third protein. A yes stands for co-enrichment or nearness to the bait. Other partners may have been found. Values belong to the binder of their own block, whether it stands above or below them.
Target: Akt (protein kinase B) (rat (endogenous in rat cardiomyocytes))
Assay: affinity purification with mass spectrometry; Akt precipitated with polyclonal Akt 1/2/3 antibody (sc-8312) and protein A-Sepharose from 1% NP-40 lysates of cardiomyocytes of control and MetS rats stimulated with 100 nM insulin for 10 min; label-free mass spectrometry of the immune complexes

B1: Isoleucyl-tRNA synthetase (protein, UniProt F1LS86 1-1262)
chain: MVQQVPENISFPAEEEKILQFWSKYNCFQECLKQSKLRPKFTFYDGPPFATGLPHYGHILAGTIKDIVTRYAHQSGFHVDRRFGWDCHGLPVEYEIDKTLGIKGPEDVAKMGIAEYNKQCRAIVMRYSAEWKSTVTRLGRWIDFDNDYKTLYPQFMESVWWVFKQLYDKGLVYRGVKVMPFSTACGTPLSNFESNQNYKDVQDPSVFVTFPLEEDENTSLVAWTTTPWTLPSNLALCVNPEIQYVKIKDVSRGKLFILMEARLSALYKQESDYEILERFPGASLKGKKYKPLFDYFIKCKENGAFTVLVDHYVKDEEGTGVVHQAPYFGADDHRVCMDFNIIQKDSAPVCPVDASGCFTEEVTHFVGQYVKDADKNIIRMLKEQGRLLVASTFTHSYPFCWRSDTPLIYKSVPSWFVRVEHMVDQLLKNNDLCYWVPEFVREKRFGNWLKEARDWAISRNRYWGTPIPLWVSEDFEEVVCIGSVAELEELSGTKISDLHRESIDHLTIPSRCGKGPLRRVSEVFDCWFESGSMPYAQVHYPFESKREFEDAFPADFIAEGIDQTRGWFYTLLVLATALFGQPPFKNVIVNGLILASDGQKMSKRKKNYPDPVSIINKYGADALRLYLINSPVVRAENLRFKEEGVRDVLKDVLLPWYNAYRFFIQNVFRLHKEEEVEFLYNEHTVRESPNITDRWILSFMQSLIAFFETEMAAYRLYTVVPRLVKFVDILTNWYVRMNRRRLKGENGMEDCVMALETLFSVLLSLCRLMAPYTPFLTELMYQNLKLLIDPASIRDKDTLSIHYLMLPHVREELIDKKTENAVSRMQSVIELGRVIRDRKTIPIKYPLKEIVVIHQDPEALEDIKSLEKYIIEELNVRKVTLSTDKNKYGIRLRAEPDHMVLGKRLKGAFKAVMVAVKQLSNEELEQFQKSGSIVVEGHELHEEDIRLMYTFDQATGGTAQFEAHSDAQALVLLDVTPDQSMVDEGMAREVINRIQKLRKKCNLVPTDEITVYYNAKSEGRYLSNVIESHTDFIYATIKAPLKPYPVPTSDNILIQEQTQLKGYELEITITRGSCVPGPACAYVNLNICANGTEQGGVLLLENPKGDNQLNLEKLKSVITSIFGVKSTGLSVFNGGTELQNQTDLLSLSGRTLCVTAGASLAPASSPSTLLCQYINLQLVNAEPQECLTGTVGTLLLENPLGQNGLTHQGLVYEAAKVFGLRSRRLKLFLNETQTQEITEDIPMKTLNMKTVYVSVLPTTADG
- binding: binds

B4: Poly(A) polymerase gamma (protein, UniProt D3ZAN6 1-739)
chain: MKEMSANTMLDSQRQQKHYGITSPISLACPKEIDHIYTQKLIDAMKPFGVFEDEEELNHRLVVLGKLNNLVKEWISDISESKNLPPSVVATVGGKIFTFGSYRLGVHTKGADIDALCVAPRHVERSDFFQSFFEKLKHQDGVRNLRAVEDAFVPVIKFEFDGIEIDLVFARLAIQTISDNLDLRDDSRLRSLDIRCIRSLNGCRVTDEILHLVPNKETFRLTLRAVKLWAKRRGIYSNMLGFLGGVSWAMLVARTCQLYPNAAASTLVHKFFLVFSKWEWPNPVLLKQPEESNLNLPVWDPRVNPSDRYHLMPIITPAYPQQNSTYNVSTSTRTVMVEEFKQGLAVTDEILQGKSDWSKLLEPPNFFQKYRHYIVLTASASTEENHLEWVGLVESKIRVLVGNLERNEFITLAHVNPQSFPGNKEHHKANNYVSMWFLGIIFRRVENAESVNIDLTYDIQSFTDTVYRQANNINMLKDGMKIEATHVKKKQLHHYLPAEILQKKKKSLSDVSRSSGGLQSKRSSLDSNCLDSSRDTDSGTPFNSPGSAHKPSNPDSPTGDAERSNAEPMAVIVEKLPSVPPAQGLSIPVIGAKGDAAVKAVSSPAVCTIPTVVGRSVIPRVTTPHNPVQGQPHLNGISNITKNVTPKRSHSPPTDGTAKRLKDIEKFIRLESAFKESRAAEDRKRKPMDAIGGESMPIPTIDTSRKKRLPSKELPDSSSPVPASNIRVIKNSIRLTLNR
- binding: binds

B7: ATP synthase subunit f, mitochondrial (protein, UniProt D3ZAF6 1-88)
chain: MASIVPLKEKKLMEVKLRELPSWILMRDFTPSGIAGAFRRGYDRYYNKYINVRKGSISGINMVLAAYVVFSYCISYKELKHERRRKYH
- binding: binds

B9: MAGUK p55 subfamily member 2 (protein, UniProt D3ZAA9 1-552)
chain: MPVAATNSESAMQQVLDNLGSLPNATGAAELDLIFLRGIMESPIVRSLAKAHERLEETKLEAVRDNNLELVQEILRDLAELAEQSSTAAELARILQEPHFQSLLETHDSVASKTYETPPPSPGLDPTFSNQPVPPDAVRMVGIRKTAGEHLGVTFRVEGGELVIARILHGGMVAQQGLLHVGDIIKEVNGQPVGSDPRALQELLRSASGSVILKILPSYQEPHLPRQVFVKCHFDYDPARDSLIPCKEAGLRFNAGDLLQIVNQDDANWWQACHVEGGSAGLIPSQLLEEKRKAFVKRDLELTPTSGTLCGSLSGKKKKRMMYLTTKNAEFDRHELLIYEEVARMPPFRRKTLVLIGAQGVGRRSLKNKLILWDPDRYGTTVPYTSRRPKDSEREGQGYSFVSRGEMEADIRAGRYLEHGEYEGNLYGTRIDSIRGVVASGKVCVLDVNPQAVKVLRTAEFVPYVVFIEAPDFETLRAMNRAALESGVSTKQLTEADLRRTVEESSRIQRGYGHYFDLSLVNSNLERTFRELQTAMEKLRTEPQWVPVSWVY
- binding: binds

B10: Dihydrolipoyl dehydrogenase, mitochondrial (protein, UniProt Q6P6R2 36-509)
chain: SDQPIDADVTVIGSGPGGYVAAIKAAQLGFKTVCIEKNETLGGTCLNVGCIPSKALLNNSHYYHLAHGKDFASRGIEIPEVRLNLEKMMEQKRSAVKALTGGIAHLFKQNKVVHVNGFGKITGKNQVTATTADGSTQVIGTKNILIATGSEVTPFPGITIDEDTIVSSTGALSLKKVPEKLVVIGAGVIGVELGSVWQRLGADVTAVEFLGHVGGIGIDMEISKNFQRILQKQGFKFKLNTKVTGATKKSDGKIDVSVEAASGGKAEVITCDVLLVCIGRRPFTQNLGLEELGIELDPKGRIPVNTRFQTKIPNIFAIGDVVAGPMLAHKAEDEGIICVEGMAGGAVHIDYNCVPSVIYTHPEVAWVGKSEEQLKEEGVEFKVGKFPFAANSRAKTNADTDGMVKILGHKSTDRILGAHILGPGAGEMVNEAALALEYGASCEDVARVCHAHPTLSEAFREANLAASFGKPINF
- binding: binds

B11: Sorting nexin-5 (protein, UniProt B1H267 1-404)
chain: MAAVPELLEQQEEDRSKLRSVSVDLNVDPSLQIDIPDALSERDKVKFTVHTKTTLPTFQSPEFSVTRQHEDFVWLHDTLTETTDYAGLIIPPAPTKPDFDGPREKMQKLGEGEGSMTKEEFAKMKQELEAEYLAVFKKTVSSHEVFLQRLSSHPVLSKDRNFHVFLEYDQDLSVRRKNTKEMFGGFFKSVVKSADEVLFSGVKEVDDFFEQEKNFLINYYNRIKDSCAKADKMTRSHKNVADDYIHTAACLHSLALEEPTVIKKYLLKVAELFEKLRKVEGRVSSDEDLKLTELLRYYMLNIEAAKDLLYRRTKALIDYENSNKALDKARLKSKDVKLAETHQQECCQKFEQLSESAKEELINFKRKRVAAFRKNLIEMSELEIKHARNNVSLLQSCIDLFKNN
- binding: binds

The remaining lines, values ahead:

- binding: binds
B2: Uncharacterized protein (M0RD07) (protein, UniProt M0RD07 1-93)
chain: MRMMAMQMMTNSISDAMERYKELIQVNSSYNIRQSQLLREQAQLKNNIQILLNEKRELLVEETELPASSVEAKRLCEEAGMNICDPRAKQQQV

- binding: binds
B3: Acyl-coenzyme A thioesterase 2, mitochondrial (protein, UniProt O55171 43-453)
chain: NATLSLEPGSRSCWDEPLSITVRGLAPEQPVTLRAALRDEKGALFRAHARYRADAGGELDLARAPALGGSFTGLEPMGLIWAMEPERPLWRLVKRDVQKPYVVELEVLDGHEPDGGQRLAQAVHERHFMAPGVRRVPVRDGRVRATLFLPPEPGPFPEIIDLFGVGGGLLEYRASLLAGKGFAVMALAYYNYDDLPKTMETMRIEYFEEAVNYLRGHPEVKGPGIGLLGISKGGELGLAMASFLKGITAAVVINGSVAAVGNTVCYKDETIPPVSLLRDKVKMTKDGLLDVVEALQSPLVDKKSFIPVERSDTTFLFLVGQDDHNWKSEFYAREASKRLQAHGKEKPQIICYPEAGHYIEPPYFPLCSAGMHLLVGANITFGGEPKPHSVAQLDAWQQLQTFFHKQLSGKS

- binding: binds
B5: Protein RUFY3 (protein, UniProt Q5FVJ0 1-469)
chain: MSALTPPTDMPTPTTDKITQAAMETIYLCKFRVSMDGEWLCLRELDDISLTPDPEPTHEDPNYLMANERMNLMNMAKLSIKGLIESALNLGRTLDSDYAPLQQFFVVMEHCLKHGLKAKKTFLGQNKSFWGPLELVEKLVPEAAEITASVKDLPGLKTPVGRGRAWLRLALMQKKLSEYMKALINKKELLSEFYEANALMMEEEGAIIAGLLVGLNVIDANFCMKGEDLDSQVGVIDFSMYLKDGNSSKGSEGDGQITAILDQKNYVEELNRHLNATVNNLQAKVDALEKSNTKLTEELAVANNRIITLQEEMERVKEESSYLLESNRKGPKQDRTAEGQALSEARKHLKEETQLRLDVEKELELQISMRQEMELAMKMLEKDVCEKQDALVSLRQQLDDLRALKHELAFKLQSSDLGVKQKSELNSRLEEKTNQMAATIKQLEQSEKDLVKQAKTLNSAANKLIPKHH

- binding: binds
B6: Neurofilament light polypeptide (protein, UniProt P19527 1-542)
chain: MSSFSYEPYFSTSYKRRYVETPRVHISSVRSGYSTARSAYSSYSAPVSSSLSVRRSYSSSSGSLMPSLENLDLSQVAAISNDLKSIRTQEKAQLQDLNDRFASFIERVHELEQQNKVLEAELLVLRQKHSEPSRFRALYEQEIRDLRLAAEDATNEKQALQGEREGLEETLRNLQARYEEEVLSREDAEGRLMEARKGADEAALARAELEKRIDSLMDEIAFLKKVHEEEIAELQAQIQYAQISVEMDVSSKPDLSAALKDIRAQYEKLAAKNMQNAEEWFKSRFTVLTESAAKNTDAVRAAKDEVSESRRLLKAKTLEIEACRGMNEALEKQLQELEDKQNADISAMQDTINKLENELRSTKSEMARYLKEYQDLLNVKMALDIEIAAYRKLLEGEETRLSFTSVGSITSGYSQSSQVFGRSAYSGLQSSSYLMSARAFPAYYTSHVQEEQSEVEETIEATKAEEAKDEPPSEGEAEEEEKEKEEGEEEEGAEEEEAAKDESEDAKEEEGGEGEEEDTKESEEEEKKEESAGEEQAAKKKD

- binding: binds
B8: Adipocyte plasma membrane-associated protein (protein, UniProt Q7TP48 1-376)
chain: MTFLMLAVSLAIPLLGAMMLLESPIDPQSFSFKEPPFMFGVLQPNTKLRQAERLFENQLNGPESIVNIGDVLFTGTADGRVVKLENGEIETIARFGSGPCKTRDDEPTCGRPLGIRVGPNGTLFVVDAYKGLFEVNPQKRSVKLLLSSETPIEGKKMSFVNDLTITRDGRKIYFTDSSSKWQRRDYLLLVMEGTDDGRLLEYDTVTKEVKVLLDQLQFPNGVQLSPEEDFVLVAETAMARIRRVYVSGLMKGGADMFVENMPGFPDNIRPSSSGGYWVAAATIRANPGFSMLDFLSDKPFIKRMIFKLFSQETVMKFVPRYSLVLEVSDSGAFRRSLHDPDGQVVTYVSEAHEHDGYLYLGSFRSPFICRLSLQSI

- binding: binds
B12: Phosphate carrier protein, mitochondrial (protein, UniProt P16036 45-356)
chain: AVEGYSCEFGSMKYYALCGFGGVLSCGLTHTAVVPLDLVKCRMQVDPQKYKGIFNGFSITLKEDGVRGLAKGWAPTLIGYSMQGLCKFGFYEVFKALYSNILGEENTYLWRTSLYLAASASAEFFADIALAPMEAAKVRIQTQPGYANTLREAVPKMYKEEGLNAFYKGVAPVWMRQIPYTMMKFACFERTVEALYKFVVPKPRSECTKAEQLVVTFVAGYIAGVFCAIVSHPADSVVSVLNKEKGSTASQVLQRLGFRGVWKGLFARIIMIGTLTALQWFIYDSVKVYFRLPRPPPPEMPESLKKKLGLTE

Source: paper PMC6988918
